PubChem BioAssay AID504774 – Drosophila RNAi Screening Center | 2011

- Screen: 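Knock-downs that shift viability of MMS-exposed cells relative to untreated ones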 (primary screen)
- System: Drosophila Kc167 cells
- Reagents: long dsRNA against Drosophila genes, about 0.25 µg dsRNA per well
- Timing: about 6 days: 3 days knock-down, then 3 days with or without MMS
- Treatment: methyl methanesulphonate 0.004% (w/v) for 3 days after knock-down
- Measured: 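ATP-dependent luminescence as a measure of live cells in MMS-exposed wells, quantile normalised within each plate, with replicate values also given as a mean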
- Direction: mean viability with MMS: higher = more surviving cells after MMS
The deposit covers about 23,000 reagents; this is a random part of those that have a named target and a result. 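Values are quantile-normalised luminescence on an arbitrary scale; higher means more cells surviving MMS.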 Names joined by + are all predicted targets of the reagent. Not all columns of the deposit are shown.

Depletion of S1P (Site-1 protease) [DRSC11810] gave: mean viability with MMS 3.80e6.
With knock-down of CstF64 (Cleavage stimulation factor 64 kD subunit) [DRSC16616], the record shows mean viability with MMS 3.47e6.
Depletion of Cat (Catalase) [DRSC11110] came out at: mean viability with MMS 3.33e6.
Depletion of CAH16 (Carbonic anhydrase 16) [DRSC15371] gave: mean viability with MMS 3.25e6.
After knock-down of CG6073 [DRSC15962], the record shows mean viability with MMS 3.69e6.
Depletion of CG6073 [DRSC22742] gave: mean viability with MMS 3.58e6.
For CG9098 [DRSC03136] the deposit lists mean viability with MMS 3.74e6.
For CG9098 [DRSC22501] the deposit lists mean viability with MMS 3.65e6.
Silencing of CG9386 [DRSC16485] gave: mean viability with MMS 3.62e6.
Knock-down of nudC [DRSC11096] came out at: mean viability with MMS 3.40e6.
For nudC [DRSC11097], the values are mean viability with MMS 3.43e6.
With knock-down of Cnx99A + Cnx14D [DRSC16610], the screen gave mean viability with MMS 3.64e6.
Silencing of Sas10 (Something about silencing 10) [DRSC18355] resulted in: mean viability with MMS 3.47e6.
Depletion of CG42382 [DRSC07671] gave: mean viability with MMS 3.69e6.
CG12730 [DRSC17885] scored mean viability with MMS 3.58e6.
With knock-down of Ir76a (Ionotropic receptor 76a) [DRSC10987], the record shows mean viability with MMS 3.76e6.
For CG5139 [DRSC00681], the entry reads mean viability with MMS 3.64e6.
Depletion of MED10 (Mediator complex subunit 10) [DRSC10474] gave: mean viability with MMS 3.27e6.
After knock-down of CG14451 [DRSC11708] the results were mean viability with MMS 3.29e6.
alpha-PheRS (Phenylalanyl-tRNA synthetase, alpha-subunit) [DRSC18224] gave mean viability with MMS 3.34e6.
Against bin (biniou) [DRSC10332], the values are mean viability with MMS 3.48e6.
After knock-down of CG17186 [DRSC15180] the results were mean viability with MMS 3.62e6.
CNPYb (Canopy b) [DRSC09845] gave mean viability with MMS 3.60e6.
Against CG14244 [DRSC14739] the deposit lists mean viability with MMS 3.59e6.
